Common to all, as to settings: yeast three-hybrid, YBZ-1, SC-Leu-His + 0.5 mM 3-AT, 4 days
The target of assay [1] is T1, PUM1 PUF domain R1-AWR S863A + R864W + Q867R (Homo sapiens) (UniProt Q14671).
T1 sequence: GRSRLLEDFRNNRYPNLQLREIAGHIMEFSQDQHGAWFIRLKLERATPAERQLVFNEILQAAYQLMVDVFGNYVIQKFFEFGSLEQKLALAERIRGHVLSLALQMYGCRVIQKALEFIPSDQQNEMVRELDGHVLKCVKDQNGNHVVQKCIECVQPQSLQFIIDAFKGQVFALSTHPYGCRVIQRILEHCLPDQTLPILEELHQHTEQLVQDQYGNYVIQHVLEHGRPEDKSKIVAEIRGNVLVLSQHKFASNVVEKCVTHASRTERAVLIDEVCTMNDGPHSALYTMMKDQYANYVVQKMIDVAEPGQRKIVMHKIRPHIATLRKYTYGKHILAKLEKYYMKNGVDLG

Assay [2] concerns the target T2, PUM1 PUF domain R1-CRR S863C + Q867R (Homo sapiens) (UniProt Q14671).
T2 sequence: T1 sequence with A36C, W37R

The target in assay [3] is T3, PUM1 PUF domain R1-GFR S863G + R864F + Q867R (Homo sapiens) (UniProt Q14671).
T3 sequence: T1 sequence with A36G, W37F

The target of assay [4] is T4, PUM1 PUF domain R1-GIR S863G + R864I + Q867R (Homo sapiens) (UniProt Q14671).
T4 sequence: T1 sequence with A36G, W37I

Assay [5] concerns the target T5, PUM1 PUF domain R1-KAR S863K + R864A + Q867R (Homo sapiens) (UniProt Q14671).
T5 sequence: T1 sequence with A36K, W37A

The target in assay [6] is T6, PUM1 PUF domain R1-KRG S863K + Q867G (Homo sapiens) (UniProt Q14671).
T6 sequence: T1 sequence with A36K, W37R, R40G

The target of assay [7] is T7, PUM1 PUF domain R1-NLR S863N + R864L + Q867R (Homo sapiens) (UniProt Q14671).
T7 sequence: T1 sequence with A36N, W37L

Assay [8] addresses T8, PUM1 PUF domain R1-NLV S863N + R864L + Q867V (Homo sapiens) (UniProt Q14671).
T8 sequence: T1 sequence with A36N, W37L, R40V

For assay [9], the target named is T9, PUM1 PUF domain R1-SRR Q867R (Homo sapiens) (UniProt Q14671).
T9 sequence: T1 sequence with A36S, W37R

Assay [10] has as its target T10, PUM1 PUF domain R1-QFR R2-VFQ R6-SWD R7-NPG S863Q + R864F + Q867R + N899V + Y900F + N1043S + Y1044W + Q1047D + S1079N + N1080P + E1083G (Homo sapiens) (UniProt Q14671).
T10 sequence: T1 sequence with A36Q, W37F, N72V, Y73F, N216S, Y217W, Q220D, S252N, N253P, E256G

For assay [11], the target named is T11, PUM1 PUF domain R6-GFE N1043G + Y1044F + Q1047E (UniProt Q14671).
T11 sequence: T1 sequence with A36S, W37R, R40Q, N216G, Y217F, Q220E

For assay [12], the target named is T12, PUM1 PUF domain R6-GRQ N1043G + Y1044R (Homo sapiens) (UniProt Q14671).
T12 sequence: T1 sequence with A36S, W37R, R40Q, N216G, Y217R

In assay [13] the target is T13, PUM1 PUF domain R6-GYR N1043G + Q1047R (Homo sapiens) (UniProt Q14671).
T13 sequence: T1 sequence with A36S, W37R, R40Q, N216G, Q220R

In assay [14] the target is T14, PUM1 PUF domain R6-HHS N1043H + Y1044H + Q1047S (UniProt Q14671).
T14 sequence: T1 sequence with A36S, W37R, R40Q, N216H, Y217H, Q220S

The target in assay [15] is T15, PUM1 PUF domain R6-IYV N1043I + Q1047V (Homo sapiens) (UniProt Q14671).
T15 sequence: T1 sequence with A36S, W37R, R40Q, N216I, Q220V

Assay [16] concerns the target T16, PUM1 PUF domain R6-LYG N1043L + Q1047G (Homo sapiens) (UniProt Q14671).
T16 sequence: T1 sequence with A36S, W37R, R40Q, N216L, Q220G

The target of assay [17] is T17, PUM1 PUF domain R6-MYL N1043M + Q1047L (Homo sapiens) (UniProt Q14671).
T17 sequence: T1 sequence with A36S, W37R, R40Q, N216M, Q220L

Assay [18] concerns the target T18, PUM1 PUF domain R6-NYV Q1047V (UniProt Q14671).
T18 sequence: T1 sequence with A36S, W37R, R40Q, Q220V

Assay [19] concerns the target T19, PUM1 PUF domain R6-NYW Q1047W (UniProt Q14671).
T19 sequence: T1 sequence with A36S, W37R, R40Q, Q220W

In assay [20] the target is T20, PUM1 PUF domain R6-WWS N1043W + Y1044W + Q1047S (Homo sapiens) (UniProt Q14671).
T20 sequence: T1 sequence with A36S, W37R, R40Q, N216W, Y217W, Q220S

Changes are numbered by the printed parent chain. The list shows a part of the results. For some assays here: At the low end of the ranking the order means little.

“GGCUAGAACUAGUGGAUCCCCCGGCGCCCGGCGGCUCGAGCCCGGGUAAGUGUAAAUGGUCUGCAUGCCGCCGGGCGCCAUGCCUGCAGGUCGACUCUAGAAAACAUG”: the binding signal (log2 enrichment (interaction score)) in assay [1] was -1.67; in [2], -1.54; in [3] it was -2.1; in assay [4], -1.52; in [5] it was -1.6; in assay [6], -1.69. Further, the binding signal (log2 enrichment (interaction score)) in [7] is -1.64; in assay [8], -3.73; in assay [9], -1.7.

With “GGCUAGAACUAGUGGAUCCCCCGGCGCCCGGCGGCUCGAGCCCGGGUAAGUUGAAAACGUCUGCAUGCCGCCGGGCGCCAUGCCUGCAGGUCGACUCUAGAAAACAUG”, in assay [10], the binding signal (log2 enrichment (interaction score)) is -2.24.

Take “GGCUAGAACUAGUGGAUCCCCCGGCGCCCGGCGGCUCGAGCCCGGGUAAGUGAAAAUAGUCUGCAUGCCGCCGGGCGCCAUGCCUGCAGGUCGACUCUAGAAAACAUG”: the binding signal (log2 enrichment (interaction score)) in [11] was -6.01; in assay [12], 0.36; in assay [13], -0.07; in assay [14], less than -6.9; in assay [15] it was 0.29; in assay [16], -0.33. Moreover, the binding signal (log2 enrichment (interaction score)) was 0.54 in assay [17], -5.77 in assay [18], -3.85 in assay [19] and -0.01 in assay [20].

Source of the values: publication PMC8384837.
